Structures were worked out from names or drawings and are uncertain.
Assays:
PI 3-kinase (p110α/p85α) [1] = target: PI 3-kinase (p110α/p85α) (UniProt P32871); test: PI 3-kinase inhibition assay; assay type: biochemical; conditions: read-out: PI 3-kinase Inhibition IC50; GST-fused p110α/p85α
PI 3-kinase (p110α/p85α) [2] = test: PI 3-kinase inhibition assay; assay type: biochemical; conditions: selectivity ratio from the IC50s for PI 3-kinase and DNA-PK

Sequences of proteins named here, by UniProt entry; tags and fusion partners are left off.
UniProt P32871, whole entry: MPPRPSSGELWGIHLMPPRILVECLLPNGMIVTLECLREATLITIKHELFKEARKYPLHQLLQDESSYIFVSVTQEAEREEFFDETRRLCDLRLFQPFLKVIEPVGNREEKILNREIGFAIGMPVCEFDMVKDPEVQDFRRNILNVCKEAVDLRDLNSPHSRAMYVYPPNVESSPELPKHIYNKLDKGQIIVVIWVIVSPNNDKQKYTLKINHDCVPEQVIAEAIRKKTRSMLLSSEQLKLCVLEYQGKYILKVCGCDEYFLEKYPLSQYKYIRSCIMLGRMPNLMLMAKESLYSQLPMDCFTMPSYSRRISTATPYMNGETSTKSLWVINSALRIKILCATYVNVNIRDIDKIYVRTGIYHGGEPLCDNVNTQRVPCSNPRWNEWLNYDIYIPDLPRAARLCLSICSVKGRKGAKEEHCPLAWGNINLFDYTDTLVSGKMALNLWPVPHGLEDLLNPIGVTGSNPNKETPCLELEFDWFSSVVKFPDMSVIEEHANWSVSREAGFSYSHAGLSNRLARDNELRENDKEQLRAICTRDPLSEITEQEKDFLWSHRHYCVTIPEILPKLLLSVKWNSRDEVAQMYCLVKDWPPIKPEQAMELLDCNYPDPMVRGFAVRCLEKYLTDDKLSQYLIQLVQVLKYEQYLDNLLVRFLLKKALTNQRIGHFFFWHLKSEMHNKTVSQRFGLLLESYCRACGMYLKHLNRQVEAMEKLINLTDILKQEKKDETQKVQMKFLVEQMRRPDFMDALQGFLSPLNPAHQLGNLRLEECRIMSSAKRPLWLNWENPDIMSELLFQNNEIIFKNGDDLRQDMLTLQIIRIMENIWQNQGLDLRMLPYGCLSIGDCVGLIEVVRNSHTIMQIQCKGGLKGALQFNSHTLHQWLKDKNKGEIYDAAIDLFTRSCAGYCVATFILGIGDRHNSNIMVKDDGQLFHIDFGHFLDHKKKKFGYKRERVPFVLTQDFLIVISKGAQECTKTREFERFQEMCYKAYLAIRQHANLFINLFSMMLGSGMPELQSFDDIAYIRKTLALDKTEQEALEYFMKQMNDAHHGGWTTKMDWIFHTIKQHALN

IC50 (PI 3-kinase (p110α/p85α) [1]): 10 µM | Δ(DNA-PK/PI 3-K) (PI 3-kinase (p110α/p85α) [2]): 29
SMILES: O=c1cc(-c2ccc(Cl)cc2)oc(N2CCOCC2)c1 [Compound 284, 2-(4-chlorophenyl)-6-(morpholin-4-yl)-pyran-4-one]

— US7674823B2, “DNA-PK inhibitors” (Cancer Research Technology Limited, priority 2001, dated 2010)
